Reference: patent publication US6844190B2, “St-B17 serotonin receptor” (The United States of America as represented by the …, priority 1992, dated 2005)
Some of these results come from one statement about several compounds together. At least one compound was matched to its structure with a doubt left.

Chains of the proteins cited; added tags and fusions are not shown. A line that says so, or that is headed by a name, gives the form on record, which may keep a tag or linker.
UniProt P31388, with tags, fused parts or gaps L57V: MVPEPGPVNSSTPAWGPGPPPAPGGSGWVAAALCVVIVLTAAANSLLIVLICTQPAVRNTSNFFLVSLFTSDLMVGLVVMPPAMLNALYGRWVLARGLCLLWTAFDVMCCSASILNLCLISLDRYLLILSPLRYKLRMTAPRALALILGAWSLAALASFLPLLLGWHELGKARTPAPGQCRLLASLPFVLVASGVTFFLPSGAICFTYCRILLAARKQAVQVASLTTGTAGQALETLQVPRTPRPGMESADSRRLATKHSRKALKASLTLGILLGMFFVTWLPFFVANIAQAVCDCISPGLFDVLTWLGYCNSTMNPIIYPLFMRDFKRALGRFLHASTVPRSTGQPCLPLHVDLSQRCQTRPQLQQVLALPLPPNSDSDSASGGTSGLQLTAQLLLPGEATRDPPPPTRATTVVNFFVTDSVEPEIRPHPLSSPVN

Target: St-B17 serotonin receptor (Rattus norvegicus, UniProt P31388, L57V)
Experiment: [125I]-LSD competition binding, Cos-7 cell membranes expressing St-B17
Parameters: expressed in transfected cells; host or cells: Cos-7 cells, transient transfection, crude membranes
Settings: screened compounds; radioligand not restated; read-out: inhibition constant (Ki)
Description: This experiment was performed on Cos-7 cell membranes expressing the St-B17 serotonin receptor.

| Compound | Ki [µM] |
| --- | --- |
| CCn1c(=O)n(C(=O)NC2CC3CC[C@@H](C2)N3C)c2ccccc21 (stereo partly drawn) [BIMU 1] | > 10 |
| CN1[C@@H]2CC[C@H]1C[C@@H](NC(=O)n1c(=O)[nH]c3ccccc31)C2 [DAU 6215] | > 10 |
| CN1[C@@H]2CC[C@H]1C[C@@H](OC(=O)c1c[nH]c3ccccc13)C2 [ICS 205,930] | > 10 |
| CN1C2CCC1CC(NC(=O)c1nn(C)c3ccccc13)C2 (stereo not drawn) [LY 278,584] | > 10 |
| CCN(CC)CCNC(=O)c1cc(Cl)c(N)cc1OC [metoclopromide] | > 10 |
| maxindol | > 10 |
